# From patent publication US20250324955A1, “ZEBRAFISH MODEL OF HUMAN ACUTE MYELOID LEUKEMIA AND METHOD OF USE THEREOF” (Versitech Limited, priority 2022, published 2025)
# At least one structure is not confirmed: it was looked up by name or label, or the drawing left a doubt.
# System: Tg(Runx1:FLT3^ITDIDH2^R172K) and Tg(Runx1:FLT3^ITDIDH2^R140Q) embryos
# Experiment: Drug treatment of double transgenic embryos, SBB staining as surrogate for embryonic myelopoiesis
# Format: in vivo, zebrafish
# Conditions: drugs at 0.01 μM, 0.1 μM and 1 μM from 6 hpf, stained at 4 dpf
# Method: Drugs at three concentrations (0.01 μM, 0.1 μM and 1 μM) were added to the embryos in E3 medium with (1-phenyl-2-thiourea) PTU at 6 hpf, and the medium was changed every 24 hours. At 4 dpf, embryos were collected and fixed in 4% PFA for SSB staining. […] Adult zebrafish were anesthetized using 0.015% Tricaine. […] Treated zebrafish were then placed into an individual recovery tank with fresh sterile fish water immediately after the gavage procedure. The drug regimen was repeated daily for 14 days.
smiles,measurement,value
"CCc1nc(C(N)=O)c(Nc2ccc(N3CCC(N4CCN(C)CC4)CC3)c(OC)c2)nc1NC1CCOCC1 [gilteritinib, Gilteritinib]",embryonic myelopoiesis (cytochemical staining with SBB),ameliorated the increase in myelopoiesis
